According to PMC3324470:

Molecular target: T1, GAMETOPHYTE … 1 (GAF1/AtRPP30) (Arabidopsis thaliana) (UniProt F4JXF1)
T1 sequence: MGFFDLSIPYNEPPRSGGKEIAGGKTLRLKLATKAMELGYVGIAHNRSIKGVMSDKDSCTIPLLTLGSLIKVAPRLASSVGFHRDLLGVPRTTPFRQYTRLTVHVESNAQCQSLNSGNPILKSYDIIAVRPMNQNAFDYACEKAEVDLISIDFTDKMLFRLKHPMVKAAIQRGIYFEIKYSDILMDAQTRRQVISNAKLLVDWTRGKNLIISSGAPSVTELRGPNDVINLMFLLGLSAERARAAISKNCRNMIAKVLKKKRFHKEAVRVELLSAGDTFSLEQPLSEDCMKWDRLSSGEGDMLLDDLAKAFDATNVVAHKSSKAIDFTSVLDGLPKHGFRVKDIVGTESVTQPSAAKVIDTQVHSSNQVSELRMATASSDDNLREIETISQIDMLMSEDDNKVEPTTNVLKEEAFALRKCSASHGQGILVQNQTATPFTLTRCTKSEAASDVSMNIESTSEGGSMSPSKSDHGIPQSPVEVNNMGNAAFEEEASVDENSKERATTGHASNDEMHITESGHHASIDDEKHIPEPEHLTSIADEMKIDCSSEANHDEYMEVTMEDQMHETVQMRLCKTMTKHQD
Experiment: two-hybrid; pGADT7 and pGBKT7 constructs co-transformed in pairs into yeast AH109; cells adjusted to OD600=0.3, growth on SD/-Trp-Leu-His-Ade plates for 5 or 12 days at 28°C (SD/-Trp-Leu for 3 days as control)

binding	Substance
no binding	AtRMP1 (Arabidopsis homologue of RNase MRP subunit RMP1)
no binding	AtRPR2 (Arabidopsis homologue of RNase P subunit RPR2)

No constants are given. Whether binding was seen depends on the method and setting.
